From patent US11572394B2, “Peptides for targeting LRP6-overexpressed cells” (PASTEUR INSTITUTE OF IRAN, priority 2020, dated 2023)
At least one compound was matched to its structure with a doubt left. Where no end group is shown, it is not given here.

The chains behind the UniProt entries cited, without tags or fusion partners. Residues count along the entry.
UniProt O75581, 20-1613: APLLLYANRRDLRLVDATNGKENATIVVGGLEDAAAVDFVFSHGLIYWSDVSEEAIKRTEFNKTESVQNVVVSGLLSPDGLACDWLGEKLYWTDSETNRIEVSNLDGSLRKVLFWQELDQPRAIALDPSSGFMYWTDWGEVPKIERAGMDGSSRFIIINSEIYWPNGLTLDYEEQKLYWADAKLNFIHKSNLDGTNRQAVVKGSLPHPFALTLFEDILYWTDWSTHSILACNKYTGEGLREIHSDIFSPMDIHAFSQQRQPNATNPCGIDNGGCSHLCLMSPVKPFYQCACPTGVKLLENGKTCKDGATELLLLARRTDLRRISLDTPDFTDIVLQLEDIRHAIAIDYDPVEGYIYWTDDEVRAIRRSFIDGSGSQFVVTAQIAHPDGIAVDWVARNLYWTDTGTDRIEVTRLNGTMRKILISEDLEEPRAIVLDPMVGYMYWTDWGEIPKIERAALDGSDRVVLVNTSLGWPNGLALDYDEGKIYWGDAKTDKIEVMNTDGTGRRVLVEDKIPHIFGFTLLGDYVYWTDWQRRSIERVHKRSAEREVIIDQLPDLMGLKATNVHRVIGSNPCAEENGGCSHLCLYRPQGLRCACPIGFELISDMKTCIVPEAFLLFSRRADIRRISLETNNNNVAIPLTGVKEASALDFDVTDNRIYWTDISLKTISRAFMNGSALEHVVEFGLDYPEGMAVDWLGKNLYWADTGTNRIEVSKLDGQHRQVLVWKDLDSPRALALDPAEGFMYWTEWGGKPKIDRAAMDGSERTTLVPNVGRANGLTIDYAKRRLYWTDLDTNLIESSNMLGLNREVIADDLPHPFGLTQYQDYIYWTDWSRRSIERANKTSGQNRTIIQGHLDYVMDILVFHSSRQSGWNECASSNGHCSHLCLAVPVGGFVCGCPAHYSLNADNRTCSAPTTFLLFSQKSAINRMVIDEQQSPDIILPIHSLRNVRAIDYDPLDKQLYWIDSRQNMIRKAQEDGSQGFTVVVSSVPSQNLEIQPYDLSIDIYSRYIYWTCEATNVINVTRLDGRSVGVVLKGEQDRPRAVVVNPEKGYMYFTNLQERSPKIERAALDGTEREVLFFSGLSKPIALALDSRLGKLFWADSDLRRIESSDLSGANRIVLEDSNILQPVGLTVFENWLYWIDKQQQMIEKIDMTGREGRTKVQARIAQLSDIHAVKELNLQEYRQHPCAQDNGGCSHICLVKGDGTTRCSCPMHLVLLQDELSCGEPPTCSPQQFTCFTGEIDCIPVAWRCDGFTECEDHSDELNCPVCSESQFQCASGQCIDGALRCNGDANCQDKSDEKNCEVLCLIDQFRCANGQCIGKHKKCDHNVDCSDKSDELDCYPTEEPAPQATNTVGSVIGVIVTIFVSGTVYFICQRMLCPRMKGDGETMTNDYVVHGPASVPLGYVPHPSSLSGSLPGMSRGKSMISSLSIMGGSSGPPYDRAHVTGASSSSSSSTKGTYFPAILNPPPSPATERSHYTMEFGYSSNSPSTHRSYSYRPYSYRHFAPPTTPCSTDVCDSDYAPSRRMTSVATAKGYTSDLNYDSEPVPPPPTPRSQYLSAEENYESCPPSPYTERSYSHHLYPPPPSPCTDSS

Biological target: LRP6 (Homo sapiens, UniProt O75581)
Assay: Localized surface plasmon resonance (LSPR) binding to LRP6
Details: LRP6 as analyte 10^−9 M to 10^−6 M

## NGYITFQDGNDYFRFPLNN [Pep-3]
  Kd: ~620 nM

## NSSSLSSGSGNNANGNFLTYY [Pep-1]
  Kd: ~540 nM
